Reference: EP2908837B1 (priority 2012, dated 2014)

Assay: general procedure: Fmoc solid-phase peptide synthesis; Rink Amide AM, Wang, Barlos (2-chlorotrityl chloride) or Sieber Amide on polystyrene-1% DVB; HBTU or HATU; PyBop/DIEA for conjugation in solution
Conditions: conjugation step

Cya-PEG2-K(P)-K(P)-NH2
conjugation yield: 24%
